Measured values as given in the supplement of paper PMC7661543.
± gives the standard deviation of the averaged measurements. The effect of the compound repeats well; differences between the knockouts mostly do not.

Test system: MDA-MB-231
Assay: relative cell number vs DMSO control (72 h) (% of DMSO); higher = less growth inhibition (more cells)
Protocol: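 QMAP-Seq: a pool of 5 breast cancer cell lines (ZR-75-1, SKBR3, HCC-38, MDA-MB-231, BT-20), each carrying 12 doxycycline-inducible Cas9 sgRNA perturbations (11 knockouts plus non-targeting sgNT), was treated with compounds for 72 h at four 10-fold doses (10 nM-10 uM or 1 nM-1 uM range). Barcodes were amplified and sequenced, and cell number was interpolated from 293T spike-in standard curves. The result is expressed as % of the median of DMSO wells. Two biological replicates.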

CCn1c(=O)c2c(nc(/C=C/c3ccc(OC)c(OC)c3)n2C)n(CC)c1=O [Istradefylline]
Conditions	relative cell number
sgRNA knockout: sgATF3, 10 nM	91.8 ± 8.4
sgRNA knockout: sgATF3, 100 nM	87 ± 1.9
sgRNA knockout: sgATF3, 1000 nM	94 ± 1.7
sgRNA knockout: sgATF3, 10000 nM	121.98 ± 0.085
sgRNA knockout: sgATF4, 10 nM	88.8 ± 32
sgRNA knockout: sgATF4, 100 nM	115 ± 31
sgRNA knockout: sgATF4, 1000 nM	143 ± 6.9
sgRNA knockout: sgATF4, 10000 nM	92.3 ± 24
sgRNA knockout: sgATF6, 10 nM	107 ± 6.5
sgRNA knockout: sgATF6, 100 nM	80.9 ± 35
sgRNA knockout: sgATF6, 1000 nM	105 ± 7.5
sgRNA knockout: sgATF6, 10000 nM	120 ± 3.8
sgRNA knockout: sgATG7, 10 nM	105 ± 8.1
sgRNA knockout: sgATG7, 100 nM	98 ± 1.8
sgRNA knockout: sgATG7, 1000 nM	98.4 ± 13
sgRNA knockout: sgATG7, 10000 nM	90.5 ± 16
sgRNA knockout: sgERN1, 10 nM	84.2 ± 12
sgRNA knockout: sgERN1, 100 nM	100 ± 4.8
sgRNA knockout: sgERN1, 1000 nM	87.8 ± 26
sgRNA knockout: sgERN1, 10000 nM	103 ± 9.2
sgRNA knockout: sgHSF1, 10 nM	87.8 ± 12
sgRNA knockout: sgHSF1, 100 nM	88.1 ± 9.8
sgRNA knockout: sgHSF1, 1000 nM	91.12 ± 0.69
sgRNA knockout: sgHSF1, 10000 nM	82.7 ± 18
sgRNA knockout: sgHSF2, 10 nM	126 ± 12
sgRNA knockout: sgHSF2, 100 nM	79.6 ± 32
sgRNA knockout: sgHSF2, 1000 nM	90.4 ± 1.1
sgRNA knockout: sgHSF2, 10000 nM	116 ± 4.3
sgRNA knockout: sgKEAP1, 10 nM	88 ± 5.2
sgRNA knockout: sgKEAP1, 100 nM	94.7 ± 15
sgRNA knockout: sgKEAP1, 1000 nM	86.7 ± 27
sgRNA knockout: sgKEAP1, 10000 nM	72.6 ± 1.2
sgRNA knockout: sgNFE2L2, 10 nM	89.7 ± 15
sgRNA knockout: sgNFE2L2, 100 nM	103 ± 5.4
sgRNA knockout: sgNFE2L2, 1000 nM	84.7 ± 17
sgRNA knockout: sgNFE2L2, 10000 nM	104 ± 8.1
sgRNA knockout: sgSLC35F2, 10 nM	103 ± 6.5
sgRNA knockout: sgSLC35F2, 100 nM	84.5 ± 5.9
sgRNA knockout: sgSLC35F2, 1000 nM	98.9 ± 11
sgRNA knockout: sgSLC35F2, 10000 nM	109 ± 15
sgRNA knockout: sgXBP1, 10 nM	87.9 ± 22
sgRNA knockout: sgXBP1, 100 nM	104 ± 14
sgRNA knockout: sgXBP1, 1000 nM	93.4 ± 11
sgRNA knockout: sgXBP1, 10000 nM	98.8 ± 12

Nc1nc(OCc2cc(Br)cs2)c2[nH]cnc2n1 [Lomeguatrib]
Conditions	relative cell number
sgRNA knockout: sgATF3, 10 nM	115 ± 14
sgRNA knockout: sgATF3, 100 nM	107 ± 11
sgRNA knockout: sgATF3, 1000 nM	104 ± 1.1
sgRNA knockout: sgATF3, 10000 nM	93.1 ± 18
sgRNA knockout: sgATF4, 10 nM	101 ± 12
sgRNA knockout: sgATF4, 100 nM	142 ± 15
sgRNA knockout: sgATF4, 1000 nM	108 ± 17
sgRNA knockout: sgATF4, 10000 nM	82.3 ± 3.2
sgRNA knockout: sgATF6, 10 nM	115 ± 49
sgRNA knockout: sgATF6, 100 nM	105 ± 19
sgRNA knockout: sgATF6, 1000 nM	109 ± 17
sgRNA knockout: sgATF6, 10000 nM	88.4 ± 9.8
sgRNA knockout: sgATG7, 10 nM	93.1 ± 19
sgRNA knockout: sgATG7, 100 nM	90.7 ± 10
sgRNA knockout: sgATG7, 1000 nM	104 ± 13
sgRNA knockout: sgATG7, 10000 nM	86.9 ± 8.3
sgRNA knockout: sgERN1, 10 nM	82.3 ± 19
sgRNA knockout: sgERN1, 100 nM	85.8 ± 17
sgRNA knockout: sgERN1, 1000 nM	83.6 ± 4.9
sgRNA knockout: sgERN1, 10000 nM	92.2 ± 6.3
sgRNA knockout: sgHSF1, 10 nM	97.2 ± 5.2
sgRNA knockout: sgHSF1, 100 nM	117 ± 20
sgRNA knockout: sgHSF1, 1000 nM	84.8 ± 1.9
sgRNA knockout: sgHSF1, 10000 nM	98.8 ± 10
sgRNA knockout: sgHSF2, 10 nM	94.6 ± 9.9
sgRNA knockout: sgHSF2, 100 nM	96.4 ± 9.3
sgRNA knockout: sgHSF2, 1000 nM	96.5 ± 14
sgRNA knockout: sgHSF2, 10000 nM	76.7 ± 7.8
sgRNA knockout: sgKEAP1, 10 nM	110 ± 26
sgRNA knockout: sgKEAP1, 100 nM	120 ± 13
sgRNA knockout: sgKEAP1, 1000 nM	100 ± 5.7
sgRNA knockout: sgKEAP1, 10000 nM	94.3 ± 3.5
sgRNA knockout: sgNFE2L2, 10 nM	109 ± 11
sgRNA knockout: sgNFE2L2, 100 nM	89.3 ± 3.5
sgRNA knockout: sgNFE2L2, 1000 nM	95.9 ± 7
sgRNA knockout: sgNFE2L2, 10000 nM	99.7 ± 5.5
sgRNA knockout: sgSLC35F2, 10 nM	89.9 ± 12
sgRNA knockout: sgSLC35F2, 100 nM	112 ± 1.9
sgRNA knockout: sgSLC35F2, 1000 nM	99.2 ± 19
sgRNA knockout: sgSLC35F2, 10000 nM	86.5 ± 20
sgRNA knockout: sgXBP1, 10 nM	100 ± 6.2
sgRNA knockout: sgXBP1, 100 nM	109 ± 26
sgRNA knockout: sgXBP1, 1000 nM	91.3 ± 34
sgRNA knockout: sgXBP1, 10000 nM	79.841 ± 0.053

CC[C@H](C)C(=O)O[C@H]1C[C@@H](C)C=C2C=C[C@H](C)[C@H](CC[C@@H]3C[C@@H](O)CC(=O)O3)[C@H]21 [Lovastatin]
Conditions	relative cell number
sgRNA knockout: sgATF3, 10 nM	123 ± 22
sgRNA knockout: sgATF3, 100 nM	95.1 ± 23
sgRNA knockout: sgATF3, 1000 nM	75.86 ± 0.46
sgRNA knockout: sgATF3, 10000 nM	13.9 ± 3.4
sgRNA knockout: sgATF4, 10 nM	122 ± 37
sgRNA knockout: sgATF4, 100 nM	103 ± 30
sgRNA knockout: sgATF4, 1000 nM	79.4 ± 1.8
sgRNA knockout: sgATF4, 10000 nM	14 ± 1.7
sgRNA knockout: sgATF6, 10 nM	132 ± 6.7
sgRNA knockout: sgATF6, 100 nM	93.3 ± 6.8
sgRNA knockout: sgATF6, 1000 nM	55.6 ± 9.1
sgRNA knockout: sgATF6, 10000 nM	12.5 ± 0.84
sgRNA knockout: sgATG7, 10 nM	113 ± 4.5
sgRNA knockout: sgATG7, 100 nM	68.5 ± 19
sgRNA knockout: sgATG7, 1000 nM	96 ± 11
sgRNA knockout: sgATG7, 10000 nM	15.5 ± 1.4
sgRNA knockout: sgERN1, 10 nM	103 ± 1.8
sgRNA knockout: sgERN1, 100 nM	69.8 ± 16
sgRNA knockout: sgERN1, 1000 nM	102 ± 2.5
sgRNA knockout: sgERN1, 10000 nM	15.1 ± 9
sgRNA knockout: sgHSF1, 10 nM	87.8 ± 20
sgRNA knockout: sgHSF1, 100 nM	99.9 ± 2.4
sgRNA knockout: sgHSF1, 1000 nM	81.8 ± 8.2
sgRNA knockout: sgHSF1, 10000 nM	15.9 ± 1.9
sgRNA knockout: sgHSF2, 10 nM	103 ± 14
sgRNA knockout: sgHSF2, 100 nM	83.2 ± 2.7
sgRNA knockout: sgHSF2, 1000 nM	102 ± 12
sgRNA knockout: sgHSF2, 10000 nM	15.4 ± 1.7
sgRNA knockout: sgKEAP1, 10 nM	108 ± 13
sgRNA knockout: sgKEAP1, 100 nM	83.3 ± 9.6
sgRNA knockout: sgKEAP1, 1000 nM	82.7 ± 20
sgRNA knockout: sgKEAP1, 10000 nM	20.9 ± 2.6
sgRNA knockout: sgNFE2L2, 10 nM	115 ± 18
sgRNA knockout: sgNFE2L2, 100 nM	92.1 ± 4.4
sgRNA knockout: sgNFE2L2, 1000 nM	72.4 ± 22
sgRNA knockout: sgNFE2L2, 10000 nM	16.2 ± 0.23
sgRNA knockout: sgSLC35F2, 10 nM	85.8 ± 9.1
sgRNA knockout: sgSLC35F2, 100 nM	82.32 ± 0.72
sgRNA knockout: sgSLC35F2, 1000 nM	78.1 ± 4.6
sgRNA knockout: sgSLC35F2, 10000 nM	13.8 ± 1.3
sgRNA knockout: sgXBP1, 10 nM	122 ± 11
sgRNA knockout: sgXBP1, 100 nM	86.9 ± 8.2
sgRNA knockout: sgXBP1, 1000 nM	66.9 ± 15
sgRNA knockout: sgXBP1, 10000 nM	12.7 ± 0.2
